Reference: the supplement of paper PMC4604168 (melanoma cell lines)
The list shows a part of the results. Many values rest on one well or one pass, so single values are uncertain.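 Cells were imaged in 1,536-well plates, and nuclei stained with an antibody against cleaved PARP were counted against all DNA-stained nuclei to give the apoptosis fraction. Screening doses were chosen to leave most cells alive, and resting and induced cleaved-PARP levels differ strongly between cell lines.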

Tests used:
Test in all cases: cleaved PARP positive nuclei fraction relative to DMSO control; melanoma cells; higher = more apoptosis
Settings in all cases: library dose: low library concentration; 72 h
MZ2-MEL = test system: MZ2-MEL
MeWo = test system: MeWo
RPMI7951 = test system: RPMI7951
RVH-421 = test system: RVH-421
SkMel28 = test system: SkMel28
SkMel2 = test system: SkMel2
SkMel30 = test system: SkMel30
UACC62 = test system: UACC62
WM115 = test system: WM115
WM1716 = test system: WM1716
WM1745 = test system: WM1745
WM3526 = test system: WM3526
WM3619 = test system: WM3619
WM451Lu = test system: WM451Lu

Row | Structure (SMILES) | cleaved PARP positive nuclei fraction (MZ2-MEL) [%] | cleaved PARP positive nuclei fraction (MeWo) [%] | cleaved PARP positive nuclei fraction (RPMI7951) [%] | cleaved PARP positive nuclei fraction (RVH-421) [%] | cleaved PARP positive nuclei fraction (SkMel28) [%] | cleaved PARP positive nuclei fraction (SkMel2) [%] | cleaved PARP positive nuclei fraction (SkMel30) [%] | cleaved PARP positive nuclei fraction (UACC62) [%] | cleaved PARP positive nuclei fraction (WM115) [%] | cleaved PARP positive nuclei fraction (WM1716) [%] | cleaved PARP positive nuclei fraction (WM1745) [%] | cleaved PARP positive nuclei fraction (WM3526) [%] | cleaved PARP positive nuclei fraction (WM3619) [%] | cleaved PARP positive nuclei fraction (WM451Lu) [%]
1 | N#CC[C@H](C1CCCC1)n1cc(-c2ncnc3[nH]ccc23)cn1 [ruxolitinib] + COc1cc([C@@H]2c3cc4c(cc3[C@@H](O[C@@H]3O[C@@H]5CO[C@@H](C)O[C@H]5[C@H](O)[C@H]3O)[C@H]3COC(=O)[C@H]23)OCO4)cc(OC)c1O [etoposide] (first compound 1 µM, partner dose 0.02 µM) | 48.5 | 80.1 | 98.3 | 56.7 | 74.9 | 232 | 77.9 | 61.3 | 153 | 35.5 | 87.7 | 203 | 82.3 | 57.9
2 | N#CC[C@H](C1CCCC1)n1cc(-c2ncnc3[nH]ccc23)cn1 [ruxolitinib] + CC(C)C[C@H](NC(=O)[C@H](Cc1ccccc1)NC(=O)c1cnccn1)B(O)O [Bortezomib] (first compound 1 µM, partner dose 0.001 µM) | 188 | 145 | 59 | 189 | 155 | 84.3 | 130 | 42.3 | 38.6 | 52.3 | 103 | 40 | 146 | 91.1
3 | O=C(/C=C/c1cccnc1)NCCCCC1CCN(C(=O)c2ccccc2)CC1 + CC(C)C[C@H](NC(=O)[C@H](Cc1ccccc1)NC(=O)c1cnccn1)B(O)O [Bortezomib] (first compound 0.01 µM, partner dose 0.001 µM) | 608 | 100 | 92.5 | 144 | 132 | 1860 | 23.9 | 65.5 | 84.8 | 300 | 97 | 23.7 | 170 | 24.2
4 | O=C(/C=C/c1cccnc1)NCCCCC1CCN(C(=O)c2ccccc2)CC1 + Cn1nnc2c(C(N)=O)ncn2c1=O [temozolomide] (first compound 0.01 µM, partner dose 2 µM) | 942 | 24.9 | 97.4 | 91.6 | 114 | 2160 | 28.3 | 119 | 70.2 | 584 | 90.8 | 148 | 102 | 40.3
5 | COc1cc([C@@H]2c3cc4c(cc3[C@@H](O[C@@H]3O[C@@H]5CO[C@@H](C)O[C@H]5[C@H](O)[C@H]3O)[C@H]3COC(=O)[C@H]23)OCO4)cc(OC)c1O [etoposide] + OCc1c[nH]c2ccccc12 [Indole-3-carbinol] (first compound 0.02 µM, partner dose 0.8 µM) | 78.1 | 161 | 44 | 152 | 209 | 179 | 57.6 | 311 | 124 | 78.7 | 99.2 | 156 | 100 | 91.3
6 | N#CC[C@H](C1CCCC1)n1cc(-c2ncnc3[nH]ccc23)cn1 [ruxolitinib] + C[C@]1(O)C[C@@H](c2nc(-c3ccc4ccc(-c5ccccc5)nc4c3)c3c(N)nccn32)C1 [OSI906] (first compound 1 µM, partner dose 0.4 µM) | 110 | 225 | 35.8 | 81.3 | 114 | 31.1 | 46.6 | 17.9 | 82.7 | 35 | 107 | 37 | 87.5 | 87.9
7 | Cc1cn(-c2cc(NC(=O)c3ccc(C)c(Nc4nccc(-c5cccnc5)n4)c3)cc(C(F)(F)F)c2)cn1 [nilotinib] + CS(=O)(=O)c1ccc(C(=O)Nc2ccc(Cl)c(-c3ccccn3)c2)c(Cl)c1 [vismodegib] (first compound 0.2 µM, partner dose 1 µM) | 92.5 | 38.2 | 53.5 | 214 | 82.8 | 73.6 | 159 | 58.6 | 89.3 | 69.2 | 83.6 | 100 | 79.4 | 82.8
8 | CCCCCCCCCCCCCCCCCCOP(=O)([O-])OC1CC[N+](C)(C)CC1 [Perifosine] + COc1ccc(Cl)c(Nc2nc3ccccc3nc2NS(=O)(=O)c2cccc(NC(=O)C(C)(C)N)c2)c1 [XL147] (first compound 0.4 µM, partner dose 0.8 µM) | 15.5 | 73.3 | 89.8 | 44.8 | 27.2 | 101 | 79 | 51.3 | 50.4 | 40.9 | 95.4 | 25.8 | 98.4 | 173
9 | CC[C@]1(O)C[C@H]2CN(CCc3c([nH]c4ccccc34)[C@@](C(=O)OC)(c3cc4c(cc3OC)N(C=O)[C@H]3[C@@](O)(C(=O)OC)[C@H](OC(C)=O)[C@]5(CC)C=CCN6CC[C@]43[C@@H]65)C2)C1 [vincristine] + Cn1nnc2c(C(N)=O)ncn2c1=O [temozolomide] (first compound 0.0001 µM, partner dose 2 µM) | 76.7 | 246 | 123 | 54.9 | 111 | 111 | 220 | 461 | 1240 | 108 | 99.3 | 82 | 150 | 83.1
10 | CCCCCCCCCCCCCCCCCCOP(=O)([O-])OC1CC[N+](C)(C)CC1 [Perifosine] + CNC(=O)c1cc(Oc2ccc(NC(=O)Nc3ccc(Cl)c(C(F)(F)F)c3)cc2)ccn1 [sorafenib] (first compound 0.4 µM, partner dose 0.4 µM) | 56.7 | 18.7 | 107 | 53.4 | 83.1 | 74 | 19.7 | 86.1 | 196 | 68.7 | 103 | 131 | 95.8 | 41.1
11 | Cc1cc(Nc2cc(N3CCN(C)CC3)nc(Sc3ccc(NC(=O)C4CC4)cc3)n2)n[nH]1 [Tozasertib] + Clc1ccc(Nc2nnc(Cc3ccncc3)c3ccccc23)cc1 [vatalanib] (first compound 0.006 µM, partner dose 2 µM) | 68 | 117 | 122 | 101 | 42.3 | 82.9 | 166 | 92.7 | 177 | 41.3 | 111 | 45.4 | 205 | 48.4
12 | CCCCCCCCCCCCCCCCCCOP(=O)([O-])OC1CC[N+](C)(C)CC1 [Perifosine] + CC(=O)c1c(C)c2cnc(Nc3ccc(N4CCNCC4)cn3)nc2n(C2CCCC2)c1=O [palbociclib] (first compound 0.4 µM, partner dose 0.04 µM) | 28.8 | 14.5 | 89.7 | 167 | 222 | 27.3 | 154 | 134 | 75.7 | 197 | 120 | 182 | 115 | 23.5
13 | CC[C@]1(O)C[C@H]2CN(CCc3c([nH]c4ccccc34)[C@@](C(=O)OC)(c3cc4c(cc3OC)N(C=O)[C@H]3[C@@](O)(C(=O)OC)[C@H](OC(C)=O)[C@]5(CC)C=CCN6CC[C@]43[C@@H]65)C2)C1 [vincristine] + CNC(=O)c1cc(Oc2ccc(NC(=O)Nc3ccc(Cl)c(C(F)(F)F)c3)cc2)ccn1 [sorafenib] (first compound 0.0001 µM, partner dose 0.4 µM) | 235 | 105 | 259 | 45.8 | 112 | 213 | 233 | 97.6 | 1130 | 182 | 130 | 94.8 | 210 | 100
14 | CCCCCCCCCCCCCCCCCCOP(=O)([O-])OC1CC[N+](C)(C)CC1 [Perifosine] + CCCCCCCCc1ccc(CCC(N)(CO)CO)cc1 [fingolimod] (first compound 0.4 µM, partner dose 2 µM) | 65.7 | 129 | 111 | 49.8 | 40.7 | 25.4 | 39.2 | 54.1 | 99.1 | 108 | 99 | 45.7 | 178 | 22.6
15 | Cc1ccc(Nc2nccc(N(C)c3ccc4c(C)n(C)nc4c3)n2)cc1S(N)(=O)=O [Pazopanib] + C=C(c1ccc(C(=O)O)cc1)c1cc2c(cc1C)C(C)(C)CCC2(C)C [Bexarotene] (first compound 0.4 µM, partner dose 2 µM) | 72.8 | 46.2 | 52.4 | 51.9 | 43.9 | 50.8 | 58.2 | 40.4 | 98.2 | 89.6 | 97.5 | 51.7 | 80.7 | 51.2
16 | CC[C@]1(O)C[C@H]2CN(CCc3c([nH]c4ccccc34)[C@@](C(=O)OC)(c3cc4c(cc3OC)N(C=O)[C@H]3[C@@](O)(C(=O)OC)[C@H](OC(C)=O)[C@]5(CC)C=CCN6CC[C@]43[C@@H]65)C2)C1 [vincristine] + CCN(CC)CCNC(=O)c1c(C)[nH]c(/C=C2\C(=O)Nc3ccc(F)cc32)c1C [sunitinib] (first compound 0.0001 µM, partner dose 0.4 µM) | 89.2 | 90.6 | 112 | 114 | 76.5 | 69.2 | 175 | 90.3 | 238 | 45.6 | 109 | 60.5 | 86.1 | 72.6
17 | O=C(Nc1cc(C(F)(F)F)cc(C(F)(F)F)c1)c1cc(Cl)ccc1O + C[C@@H](N)c1ccc(C(=O)Nc2ccnc3[nH]ccc23)cc1 [RKI983] (first compound 0.016 µM, partner dose 0.4 µM) | 160 | 2090 | 222 | 353 | 382 | 99.8 | 91.5 | 302 | 51 | 2590 | 20.7 | 71 | 86.7 | 159

Taken from the listing for reference:
Row | Structure (SMILES) | cleaved PARP positive nuclei fraction (MZ2-MEL) [%] | cleaved PARP positive nuclei fraction (MeWo) [%] | cleaved PARP positive nuclei fraction (RPMI7951) [%] | cleaved PARP positive nuclei fraction (RVH-421) [%] | cleaved PARP positive nuclei fraction (SkMel28) [%] | cleaved PARP positive nuclei fraction (SkMel2) [%] | cleaved PARP positive nuclei fraction (SkMel30) [%] | cleaved PARP positive nuclei fraction (UACC62) [%] | cleaved PARP positive nuclei fraction (WM115) [%] | cleaved PARP positive nuclei fraction (WM1716) [%] | cleaved PARP positive nuclei fraction (WM1745) [%] | cleaved PARP positive nuclei fraction (WM3526) [%] | cleaved PARP positive nuclei fraction (WM3619) [%] | cleaved PARP positive nuclei fraction (WM451Lu) [%]
11 | Cc1cc(Nc2cc(N3CCN(C)CC3)nc(Sc3ccc(NC(=O)C4CC4)cc3)n2)n[nH]1 [Tozasertib] + Clc1ccc(Nc2nnc(Cc3ccncc3)c3ccccc23)cc1 [vatalanib] (first compound 0.006 µM, partner dose 2 µM) | 68 | 117 | 122 | 101 | 42.3 | 82.9 | 166 | 92.7 | 177 | 41.3 | 111 | 45.4 | 205 | 48.4
12 | CCCCCCCCCCCCCCCCCCOP(=O)([O-])OC1CC[N+](C)(C)CC1 [Perifosine] + CC(=O)c1c(C)c2cnc(Nc3ccc(N4CCNCC4)cn3)nc2n(C2CCCC2)c1=O [palbociclib] (first compound 0.4 µM, partner dose 0.04 µM) | 28.8 | 14.5 | 89.7 | 167 | 222 | 27.3 | 154 | 134 | 75.7 | 197 | 120 | 182 | 115 | 23.5
